Laboratory results published in article PMC3536758.

What was measured:
[1] = biological target: T1, MBP-ComKBco (Bacillus coagulans DSM 1) (UniProt K4MVI2); assay: EMSA; details: 275 nM-2.2 uM protein, poly(dI-dC); EMSA: binding buffer (composition not given) with poly(dI-dC), premixed on ice, 20 min at 30 C; 6% polyacrylamide gel in 1x TBE, 90 V, 60 min; pH and salt not given; recombinant protein; protein details: N-terminal MBP; label: 33P 5' end; probe letters rebuilt from the primers and the genome
T1 sequence (looked up, limits assumed): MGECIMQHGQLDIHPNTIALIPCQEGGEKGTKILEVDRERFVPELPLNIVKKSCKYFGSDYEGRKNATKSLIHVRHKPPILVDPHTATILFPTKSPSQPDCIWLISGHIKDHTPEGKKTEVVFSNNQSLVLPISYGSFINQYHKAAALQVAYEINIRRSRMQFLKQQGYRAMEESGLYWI

[2] = biological target: T2, MBP-ComKBsu (Bacillus subtilis) (UniProt P40396); assay: EMSA; details: 125 nM-1 uM protein, poly(dI-dC); EMSA: binding buffer (composition not given) with poly(dI-dC), premixed on ice, 20 min at 30 C; 6% polyacrylamide gel in 1x TBE, 90 V, 60 min; pH and salt not given; recombinant protein; protein details: MBP; label: 33P 5' end; probe letters rebuilt from the primers and the genome
T2 sequence (looked up, limits assumed): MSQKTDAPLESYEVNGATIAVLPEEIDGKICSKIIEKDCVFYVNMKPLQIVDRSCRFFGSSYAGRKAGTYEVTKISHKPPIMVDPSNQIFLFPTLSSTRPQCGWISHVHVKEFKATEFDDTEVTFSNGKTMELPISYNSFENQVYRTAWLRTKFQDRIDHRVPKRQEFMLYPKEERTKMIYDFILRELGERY

| Sequence | binding result [1] | binding result [2] |
| --- | --- | --- |
| GGGCCCTTCTACCGACATAATCCATCACATACCACCTTTCTTTTGGGATATTCTCTCATTTCGACACGGCTTTCAAAATTCCTGCTGAAAGCAAAAATTTTTTCGCTATTTTTTTCTCTCAGCCGCAAAAAAGTGTGTGATTTTTGTCACAAATTTTGGCGTTGTTATCATTTATAATATAGATAGGATAAAAAATATAGAGGTGTTTAATATGGAACCAACATTAAAAGTGATCAACGCCCTTTCTGACCCGACCCGCTACTCGATTTACCAATTTGTACTGAAGAAACGGAGCGAAGTATCCGTCCAGGAAGGTACC (double strand) [comGABco promoter] | binds | binds |
| GGGGCCCTTTCCAGCTTGGACCTGTATAACGAGCCATGAAAGACTCCTCCTTTGTTTTTATTTTGTTGTAAAATAAAAACAGATATCATGGACACTTCTTCATGCGTATTTTGTTTTCATGTACCATCGCCCCAGCAGCAGAGGGTTACACGATACACCTTGCATTCAGGCAAGGAACAAAATACAAACACAAAGCCGTCCAATAAGGCTGCATTATTTTACACAACGTTGATTATATGTTTTCAGAGAAAAAAAGTCAACAACAAATGCAAATCGGGATGCCGTTGCAAATCGGGATGCCATGCCAAAAAAATTTTACATACCGGTTTTGCCGGGTTCATAACAGGACTTAAGATACAACACATACTGTATATCGGTCGAGCGGGCTGTACATTTATAGTACTTTTGCATTATAATGGTATTAATTTGACCGGTTTTTACATTTTTACGTCTCCCGTGCGGTTTTTTGTTTTAAAATTCTTCATTTTCAAGGTTCACACTTTTTAGTGCTTTTTTTCGCTTTTATACGGAAACAGGGTCAGGGTGATTAGGAAATGGAAAAAAAGAAAGAAAATCATTTAATCCTATATTATAAGTCCCGTTTACTGGATTGGTACCC (double strand) [rpsDBco promoter] | no binding | – |

Construct, isoform or probe ends are uncertain for at least one entry. For part of these data: Negatives hold for the conditions tested. Where a protein sequence is shown, tags need not be part of it. For part of these data: At least one verdict was read from the data and is not stated in words by the source.
